Results: PMC11310305
These are yes or no findings as the source states them, for the method shown. In cells and extracts the contact can be indirect. Some binding calls cover weakened binding; strength is not graded here.

Chains of the proteins cited; added tags and fusions are not shown.
UniProt P60903: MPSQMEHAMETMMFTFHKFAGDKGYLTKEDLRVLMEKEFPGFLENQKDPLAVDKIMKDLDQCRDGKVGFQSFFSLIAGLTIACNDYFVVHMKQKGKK

Molecular target: S100 calcium-binding protein A10 (S100A10) (UniProt P60903)
Assay: co-IP; cell lysate incubated with anti-S100A10 or anti-cPLA2 antibody and protein A/G beads for 2 h, three washes with lysis buffer, SDS-PAGE and immunoblotting

B1: cPLA2 protein (encoded by PLA2G4A) (enzyme, UniProt P47712 1-749)
chain: MSFIDPYQHIIVEHQYSHKFTVVVLRATKVTKGAFGDMLDTPDPYVELFISTTPDSRKRTRHFNNDINPVWNETFEFILDPNQENVLEITLMDANYVMDETLGTATFTVSSMKVGEKKEVPFIFNQVTEMVLEMSLEVCSCPDLRFSMALCDQEKTFRQQRKEHIRESMKKLLGPKNSEGLHSARDVPVVAILGSGGGFRAMVGFSGVMKALYESGILDCATYVAGLSGSTWYMSTLYSHPDFPEKGPEEINEELMKNVSHNPLLLLTPQKVKRYVESLWKKKSSGQPVTFTDIFGMLIGETLIHNRMNTTLSSLKEKVNTAQCPLPLFTCLHVKPDVSELMFADWVEFSPYEIGMAKYGTFMAPDLFGSKFFMGTVVKKYEENPLHFLMGVWGSAFSILFNRVLGVSGSQSRGSTMEEELENITTKHIVSNDSSDSDDESHEPKGTENEDAGSDYQSDNQASWIHRMIMALVSDSALFNTREGRAGKVHNFMLGLNLNTSYPLSPLSDFATQDSFDDDELDAAVADPDEFERIYEPLDVKSKKIHVVDSGLTFNLPYPLILRPQRGVDLIISFDFSARPSDSSPPFKELLLAEKWAKMNKLPFPKIDPYVFDREGLKECYVFKPKNPDMEKDCPTIIHFVLANINFRKYRAPGVPRETEEEKEIADFDIFDDPESPFSTFNFQYPNQAFKRLHDLMHFNTLNNIDVIKEAMVESIEYRRQNPSRCSVSLSNVEARRFFNKEFLSKPKA
For B1, the binding was “binds”.
